Experimental data taken from publication PMC12040169 (PLOS Biology, 2025).
The other results are listed elsewhere or left out.

The compounds below were run on T1, CTL2-GFP (C. trachomatis L2/434/Bu, GFP-expressing). Conditions: bulk GFP, single well; 28.5 h, 10 µM; inhibitor.
T1 construct: L2/434/Bu, GFP-expressing
Design: species or system HeLa; Intracellular C. trachomatis growth in HeLa cells, bulk GFP fluorescence relative to DMSO
With `COc1ccc2c(c1)C1(CC(=O)N(CCc3scnc3C)C1=O)C(=O)N2C` (stereo not drawn) [CBK075213] the “% of control remaining” value was 106.046%. For `Fc1ccc(-c2cn(-c3cncnc3)nn2)c(F)c1` [CBK112989], the “% of control remaining” value was 100%. With `CCC1CCC2(CC1)NC(=O)N(Cc1nc(-c3cccs3)no1)C2=O` (stereo not drawn) [CBK305005] the “% of control remaining” value was 131.713%. `N=c1n(CCN2CCCCC2)c2ccccc2n1CC(=O)c1cccs1` [CBK278244B] was tested, and the “% of control remaining” value was 100%. `O=C(NCCNc1ccc(Cl)cc1[N+](=O)[O-])c1ccccc1Br` [CBK263538] was tested, and the “% of control remaining” value was 118.78%. `O=C(O)c1cc(S(=O)(=O)N2CCOCC2)c(Cl)cc1NC1CCCCC1` [CBK264576] was tested, and the “% of control remaining” value was 125.514%. With `Cc1ccc(-c2ncc(OCC3CCCN3C)nc2N)c(C)c1` (stereo not drawn) [CBK145137] the “% of control remaining” value was 125.26%. For `Cc1c(NC(=O)c2ccc3c(c2)C(=O)N(Cc2ccco2)C3=O)cccc1C(=O)O` [CBK268627], the “% of control remaining” value was 164.169%. In the case of `Cc1cc(CN2CCN(c3nc(-c4ccccc4)nc4ccccc34)CC2)no1` [CBK296654], the “% of control remaining” value is reported as 143.511%. `CC(C)(C)OC(=O)N1CCC(CNS(=O)(=O)c2cccc3cccnc23)CC1` [CBK086017] was tested, and the “% of control remaining” value was 117.145%. In the case of `COc1ccc(CN(CCCN2CCOCC2)C(=O)NCc2ccc(C#N)cc2)cc1OC` [CBK159125], the “% of control remaining” value is reported as 127.762%. `CN(C)c1cccc(Nc2cc(-c3ccco3)ncn2)c1` [CBK091014] was tested, and the “% of control remaining” value was 128.645%. `CCOc1ccccc1NC(=O)CSc1cnn[nH]1` [CBK270005] was tested, and the “% of control remaining” value was 162.576%. With `COc1cccc(CN2CCN(C(=O)N3CCCC3)[C@@H](C)C2)c1` [CBK285491] the “% of control remaining” value was 94.515%. In the case of `CN1CCN(c2ccc([N+](=O)[O-])cc2/C=N/NC(=O)CCc2ccccc2O)CC1` [CBK263281], the “% of control remaining” value is reported as 117.459%. `COc1ccc2[nH]c(C(=O)O)c(CCNC(C)=O)c2c1` [CBK260943N] was tested, and the “% of control remaining” value was 111.517%. For `Cc1sc2ncn(CC3(O)CCCNC3)c(=O)c2c1-c1ccc(F)cc1` (stereo not drawn) [CBK307346], the “% of control remaining” value was 146.321%. In the case of `COc1ccc(C(=O)Nc2ccccc2N2CCN(C)CC2)c(OC)c1` [CBK269763], the “% of control remaining” value is reported as 87.7657%. `CC1(C)OC(NC2CC3CCC2C3)=NC1=O` (stereo not drawn) [CBK092237] was tested, and the “% of control remaining” value was 144.47%. For `O=C(O)c1nc(/N=C/c2ccc(C#Cc3ccccc3)cc2)n[nH]1` [CBK261219], the “% of control remaining” value was 109.797%. `COc1ccc(C(=O)N2CCC3(CCCN(C(=O)c4cc(OC)c(OC)c(OC)c4)C3)C2)cc1OC` (stereo not drawn) [CBK131667] was tested, and the “% of control remaining” value was 122.477%. `NCC(=O)Nc1ccc(F)c(F)c1` [CBK046313] was tested, and the “% of control remaining” value was 122.662%. For `Cc1ccc2oc(C(=O)N3CCN(CC(=O)N(C)C)CC3)c(C)c2c1` [CBK281423], the “% of control remaining” value was 115.996%. `O=C(NCc1ccc(Cl)c(Cl)c1)C1(c2ccccc2)CCCC1` [CBK149528] was tested, and the “% of control remaining” value was 66.1206%. For `CCc1nc2ccc(C(=O)N3CCCC(C(N)=O)C3)cn2c1N(CC)CCN(C)C` (stereo not drawn) [CBK146185], the “% of control remaining” value was 138.342%. With `O=C(NC1CCCC1)c1ccc(-c2cnc3[nH]c(=O)n(Cc4ccc(Cl)cc4)c3n2)cc1` [CBK065039] the “% of control remaining” value was 157.788%. `CCC(CC)C(=O)Nc1nc(OCCN2CCCC2=O)cnc1-c1ccc(Cl)cc1Cl` [CBK145210] was tested, and the “% of control remaining” value was 104.673%. With `COc1ccccc1C(CC(=O)O)c1ccc2c(c1)OCO2` (stereo not drawn) [CBK286971] the “% of control remaining” value was 114.315%. For `Clc1ccc(CN2CCN(c3nccnc3OCC3COc4ccccc4O3)CC2)cc1` (stereo not drawn) [CBK082786T], the “% of control remaining” value was 84.0315%. With `OC1(c2ccccn2)CCN(CCc2ccccc2)CC1` [CBK282904] the “% of control remaining” value was 117.322%. `Nc1nnc(CC(=O)N/N=C/c2cc(Br)c(O)c(Br)c2O)s1` [CBK262131] was tested, and the “% of control remaining” value was 100%. For `CCOC(=O)c1ccc(NCc2c(O)ccc3oc4c(c23)CCCC4)cc1` [CBK160394], the “% of control remaining” value was 55.4895%. With `O=S(=O)(c1ccc(F)cc1)N1CCCC(c2nccnc2-c2ccc(F)cc2)C1` (stereo not drawn) [CBK286136] the “% of control remaining” value was 90.8282%. `Cc1cccc(Nc2nc(N/N=C/c3c[nH]nc3-c3ccccc3)nc(N3CCC(C)CC3)n2)c1C` [CBK262498] was tested, and the “% of control remaining” value was 120.198%. `Cc1nc(C)c(C(=O)NC(Cc2ccsc2)c2nccs2)s1` (stereo not drawn) [CBK282822] was tested, and the “% of control remaining” value was 140.492%. With `Cc1ccc2[nH]c(CNC(=O)c3cn[nH]c3C3CCCCN3)nc2c1` (stereo not drawn) [CBK304741] the “% of control remaining” value was 88.962%. With `O=C(C1CCCC1)N1CCCC(c2cc3cccnc3[nH]2)C1` (stereo not drawn) [CBK284979] the “% of control remaining” value was 69.0309%. With `CCOC(=O)C1=C(C(=O)OCC)SC(=C2C(=S)C(C)(C)N(C(=O)c3ccc4ccccc4c3)c3ccccc32)S1` [CBK261643] the “% of control remaining” value was 124.69%. For `O=C(NCCn1nc2c(cc1=O)CCCCC2)c1ccccc1F` [CBK282300], the “% of control remaining” value was 130.006%. In the case of `CCN1CCN(c2ccc(NC(=O)c3ccc(-c4cc5ccccc5oc4=O)cc3)cc2Cl)CC1` [CBK266700], the “% of control remaining” value is reported as 206.599%. `Cc1nc2c(c(=O)[nH]1)CCN(Cc1ccc(Cl)c(Cl)c1)C2` [CBK283969] was tested, and the “% of control remaining” value was 115.458%. `Cc1cc(C)c(C)c(S(=O)(=O)NCCOCCO)c1C` [CBK269153] was tested, and the “% of control remaining” value was 141.177%. In the case of `COc1cc(/C=C(/C#N)c2ccc(C(=O)O)cc2)c([N+](=O)[O-])cc1OCc1ccccc1` [CBK268738], the “% of control remaining” value is reported as 105.702%. In the case of `CCCCOC(=O)c1ccc(NC(=O)c2cc(-c3ccco3)nc3c2c(C)nn3C)cc1` [CBK295313], the “% of control remaining” value is reported as 138.716%. `CC1CCCN(C(=O)CCc2nc3sc4c(c3c(=O)[nH]2)CCCC4)C1` (stereo not drawn) [CBK306073] was tested, and the “% of control remaining” value was 120.359%. `Cn1ncc(N)c1C(=O)Nc1cccc(Cl)c1` [CBK270107] was tested, and the “% of control remaining” value was 141.022%. In the case of `O=C1NC2(CCN(C(=O)c3cccs3)CC2)Oc2ccccc21` [CBK283998], the “% of control remaining” value is reported as 142.728%. With `N#Cc1cnc2c(-c3ccccc3)c(Cc3ccccc3)nn2c1N` [CBK270191] the “% of control remaining” value was 131.18%. For `COc1cc(CNc2cc(-c3cccc4oc5ccccc5c34)ncn2)cc(OC)c1OC` [CBK091177], the “% of control remaining” value was 202.615%. In the case of `Cc1cc2ccccc2n2c(SCCC(=O)Nc3ccc(C(C)(C)C)cc3)nnc12` [CBK265639], the “% of control remaining” value is reported as 100%. For `O=C(c1ccc(F)cc1)N1CCCC(c2nccnc2-c2cccc(C(F)(F)F)c2)C1` (stereo not drawn) [CBK286142], the “% of control remaining” value was 124.622%. With `CN1Cc2ccccc2CC1C(=O)N1CCCC12CC=CC2` (stereo not drawn) [CBK282838] the “% of control remaining” value was 134.493%. `Cc1ccc(S(=O)(=O)NCCSc2nnc(N)s2)cc1` [CBK266300] was tested, and the “% of control remaining” value was 99.8683%. `O=C(c1ccccc1Br)N1CCN(c2ccc([N+](=O)[O-])c(NCc3cccnc3)c2)CC1` [CBK265735] was tested, and the “% of control remaining” value was 180.034%. For `CCn1c(SC(C)C(N)=O)nc2ccc(Br)cc2c1=O` (stereo not drawn) [CBK306424], the “% of control remaining” value was 100.515%. `CCOC(=O)C1=C(C)NC(=O)NC1c1ccc(-c2ccccc2F)o1` (stereo not drawn) [CBK263867] was tested, and the “% of control remaining” value was 100%. With `C1=CCC(CN(CCCn2ccnc2)Cc2cccnc2)CC1` (stereo not drawn) [CBK283216] the “% of control remaining” value was 119.418%. For `Cc1nc(C(Cc2ccsc2)NC(=O)C2CCCNC2)sc1C` (stereo not drawn) [CBK282228], the “% of control remaining” value was 152.241%. `C=CCn1c(COc2cccc3ccc(C)nc23)nnc1SC` [CBK266608] was tested, and the “% of control remaining” value was 98.6365%. In the case of `O=C(COc1ccc([N+](=O)[O-])cc1)Nc1ccc(S(=O)(=O)N2CCCCC2)cc1` [CBK265003], the “% of control remaining” value is reported as 108.178%. With `OC(CN1CCC(O)(c2ccc(F)cc2)CC1)c1ccc(F)cc1` (stereo not drawn) [CBK282510] the “% of control remaining” value was 131.938%. With `Cc1ccc2c(c1)CCCN2C(=O)c1csc2c(C(F)(F)F)cc(N3CCOCC3)nc12` [CBK028367] the “% of control remaining” value was 54.8973%. With `O=C(c1cnccn1)N1CCC(Cc2ccccc2)CC1` [CBK200181] the “% of control remaining” value was 101.733%. `COc1cccc(CN2CCCC(NC(=O)c3ccccc3Cl)C2)c1` (stereo not drawn) [CBK306774] was tested, and the “% of control remaining” value was 69.7044%. `O=C(NCCc1ccc(O)cc1)c1ccc2[nH]ccc2c1` [CBK149063] was tested, and the “% of control remaining” value was 118.632%. `O=C(Nc1ccc2ncccc2c1)c1ccc(F)c(F)c1` [CBK159810] was tested, and the “% of control remaining” value was 113.566%. `CC(=O)Nc1ccc(-c2ccc3n(c2=O)C[C@H]2C[C@@H]3CN(C(=O)C3CCCCC3)C2)cc1` [CBK289188] was tested, and the “% of control remaining” value was 109.104%. In the case of `O=C(Cn1cc(C(=O)Nc2cc(F)ccc2N2CCCC2)ccc1=O)NC1CCCCC1` [CBK285981], the “% of control remaining” value is reported as 100.355%. With `Cc1ccccc1C(=O)NCCNC(=O)c1nonc1N` [CBK267677] the “% of control remaining” value was 93.2531%. In the case of `Brc1cnc(OCc2ccccc2)nc1OCc1ccccc1` [CBK261274], the “% of control remaining” value is reported as 100%. `N#CCC(=O)Nc1ccc(F)c(Cl)c1` [CBK085905] was tested, and the “% of control remaining” value was 134.355%. For `NC(=O)c1ccccc1NC(=O)CN1CCN(Cc2cccc(Cl)c2)CC1` [CBK270320], the “% of control remaining” value was 143.392%. For `CCN(CC)C(=O)c1ccccc1NS(=O)(=O)Cc1ccccc1[N+](=O)[O-]` [CBK045428], the “% of control remaining” value was 129.851%. `CCCCn1nnnc1NCc1cccc(OC)c1OC` [CBK288091] was tested, and the “% of control remaining” value was 123.638%. For `C[C@@H](Cn1nc2c(cc1=O)CCCC2)NC(=O)Cc1ccc(F)cc1` [CBK284526], the “% of control remaining” value was 129.891%. With `CSc1cccc(NC(=S)N2CCC(N(C)C(C)C)CC2)c1` [CBK294463] the “% of control remaining” value was 165.201%. In the case of `COc1ccccc1-c1noc(CCCC(=O)Nc2cccc(C(F)(F)F)c2)n1` [CBK268794], the “% of control remaining” value is reported as 155.352%. With `CN1CCN(Cc2nc3c(c(=O)n(C)c(=O)n3C)n2Cc2ccc(Br)cc2)CC1` [CBK269310] the “% of control remaining” value was 164.384%.
